The other results are listed elsewhere or left out.
Legend:
Test in all cases: log2 fold change, soluble protein after heating vs DMSO (PISA); higher = thermal stabilisation; K562 cells, 10 uM, 30 min; active = over 0.2 and 3.5 SD of the protein, either way, in both replicates (recomputed)
[1] = compound: CC1=C(C=C(C=C1)NC(=O)C2=CC(=CC=C2)C(C)(C)C#N)NC3=CC4=C(C=C3)N=CN(C4=O)C
How it was run: (§1)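 For each measurement, 10 μM compound was applied for 30 min to K562 cells at 2×10^6 cells/mL. Aliquots were heated for 3 min across 48°C-58°C, pooled, and extracted in PBS with 0.5% NP-40 at 4°C; the supernatant after 21,000xg for 90 min was soluble protein. This was quantified by TMTpro 16plex LC-MS/MS with channel sums equalised, and thermal stability was reported relative to control samples from duplicates, on a log2 fold-change scale.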

By UniProt entry, the sequences of proteins in these tests, tags left out. Where a name states a change or a piece, a line headed by the entry shows the natural chain unless it says otherwise.
UniProt P20962: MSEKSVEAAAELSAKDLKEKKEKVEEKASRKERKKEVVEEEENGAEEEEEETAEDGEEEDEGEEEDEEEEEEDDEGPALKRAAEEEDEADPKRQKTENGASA
UniProt Q99436: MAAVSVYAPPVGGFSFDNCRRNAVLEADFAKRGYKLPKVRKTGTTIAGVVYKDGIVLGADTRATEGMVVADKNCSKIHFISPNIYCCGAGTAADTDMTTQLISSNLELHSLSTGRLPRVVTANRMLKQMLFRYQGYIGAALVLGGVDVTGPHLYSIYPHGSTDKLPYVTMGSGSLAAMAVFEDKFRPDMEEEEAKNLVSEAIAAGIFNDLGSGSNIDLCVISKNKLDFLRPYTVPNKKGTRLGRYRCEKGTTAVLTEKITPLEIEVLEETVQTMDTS
UniProt Q13308: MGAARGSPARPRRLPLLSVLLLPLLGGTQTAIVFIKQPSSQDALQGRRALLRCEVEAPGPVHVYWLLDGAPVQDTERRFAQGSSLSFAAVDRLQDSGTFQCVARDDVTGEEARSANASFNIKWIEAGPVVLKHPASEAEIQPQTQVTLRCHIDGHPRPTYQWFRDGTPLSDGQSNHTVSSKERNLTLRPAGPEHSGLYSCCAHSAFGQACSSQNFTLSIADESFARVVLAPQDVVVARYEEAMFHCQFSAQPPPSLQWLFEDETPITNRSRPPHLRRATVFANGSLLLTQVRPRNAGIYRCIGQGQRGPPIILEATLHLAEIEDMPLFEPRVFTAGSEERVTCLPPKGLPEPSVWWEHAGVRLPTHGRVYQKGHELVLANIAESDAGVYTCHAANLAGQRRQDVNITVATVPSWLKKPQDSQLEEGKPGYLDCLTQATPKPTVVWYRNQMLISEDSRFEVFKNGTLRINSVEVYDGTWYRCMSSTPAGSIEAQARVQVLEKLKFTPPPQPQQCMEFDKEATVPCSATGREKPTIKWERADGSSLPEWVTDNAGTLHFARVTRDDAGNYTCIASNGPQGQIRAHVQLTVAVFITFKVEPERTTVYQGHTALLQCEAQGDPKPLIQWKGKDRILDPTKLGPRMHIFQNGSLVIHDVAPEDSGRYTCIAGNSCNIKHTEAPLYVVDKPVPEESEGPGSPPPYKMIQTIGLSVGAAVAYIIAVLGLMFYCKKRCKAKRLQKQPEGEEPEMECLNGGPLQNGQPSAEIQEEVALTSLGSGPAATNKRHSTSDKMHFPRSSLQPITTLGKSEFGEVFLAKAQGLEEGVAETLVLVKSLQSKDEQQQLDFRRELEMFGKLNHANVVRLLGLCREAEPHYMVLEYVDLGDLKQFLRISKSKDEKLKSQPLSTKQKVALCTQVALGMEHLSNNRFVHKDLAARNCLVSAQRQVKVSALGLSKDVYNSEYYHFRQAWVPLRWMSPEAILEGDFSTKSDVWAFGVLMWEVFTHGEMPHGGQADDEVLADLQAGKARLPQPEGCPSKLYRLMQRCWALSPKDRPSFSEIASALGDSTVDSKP
UniProt Q9H974: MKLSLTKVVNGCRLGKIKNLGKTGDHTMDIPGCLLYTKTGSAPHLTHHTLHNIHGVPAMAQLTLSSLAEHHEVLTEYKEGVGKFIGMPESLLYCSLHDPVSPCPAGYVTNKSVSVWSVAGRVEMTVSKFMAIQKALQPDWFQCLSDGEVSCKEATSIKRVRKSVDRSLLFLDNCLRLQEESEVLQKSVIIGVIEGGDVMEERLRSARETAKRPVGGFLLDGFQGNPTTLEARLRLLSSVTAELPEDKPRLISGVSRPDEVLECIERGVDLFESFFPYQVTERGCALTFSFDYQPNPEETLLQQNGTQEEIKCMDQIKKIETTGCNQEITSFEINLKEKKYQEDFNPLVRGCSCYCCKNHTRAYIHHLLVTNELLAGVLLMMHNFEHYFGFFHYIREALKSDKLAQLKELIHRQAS
UniProt Q96PZ0: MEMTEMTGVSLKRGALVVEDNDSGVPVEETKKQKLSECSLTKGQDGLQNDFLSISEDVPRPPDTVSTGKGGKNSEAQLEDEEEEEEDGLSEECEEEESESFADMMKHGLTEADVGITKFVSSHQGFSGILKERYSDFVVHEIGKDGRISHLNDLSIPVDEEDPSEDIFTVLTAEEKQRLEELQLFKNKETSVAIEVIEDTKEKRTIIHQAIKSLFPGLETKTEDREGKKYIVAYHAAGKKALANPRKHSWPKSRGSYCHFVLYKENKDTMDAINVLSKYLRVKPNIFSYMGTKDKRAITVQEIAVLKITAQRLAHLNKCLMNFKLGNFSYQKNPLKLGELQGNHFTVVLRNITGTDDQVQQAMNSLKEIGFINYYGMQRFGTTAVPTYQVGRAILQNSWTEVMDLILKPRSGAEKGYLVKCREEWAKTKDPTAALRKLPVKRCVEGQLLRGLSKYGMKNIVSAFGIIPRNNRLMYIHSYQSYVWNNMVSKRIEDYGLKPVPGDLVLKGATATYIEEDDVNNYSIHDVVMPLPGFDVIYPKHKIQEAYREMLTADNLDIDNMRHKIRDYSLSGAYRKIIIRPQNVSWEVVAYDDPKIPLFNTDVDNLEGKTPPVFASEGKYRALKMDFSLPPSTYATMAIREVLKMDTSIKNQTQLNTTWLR
UniProt O75832: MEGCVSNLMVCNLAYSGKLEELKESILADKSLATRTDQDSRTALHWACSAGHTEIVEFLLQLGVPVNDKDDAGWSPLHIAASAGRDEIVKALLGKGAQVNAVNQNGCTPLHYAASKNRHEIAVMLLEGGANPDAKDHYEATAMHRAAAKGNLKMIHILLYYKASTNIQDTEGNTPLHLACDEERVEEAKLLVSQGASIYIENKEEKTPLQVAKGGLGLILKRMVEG
UniProt P07602: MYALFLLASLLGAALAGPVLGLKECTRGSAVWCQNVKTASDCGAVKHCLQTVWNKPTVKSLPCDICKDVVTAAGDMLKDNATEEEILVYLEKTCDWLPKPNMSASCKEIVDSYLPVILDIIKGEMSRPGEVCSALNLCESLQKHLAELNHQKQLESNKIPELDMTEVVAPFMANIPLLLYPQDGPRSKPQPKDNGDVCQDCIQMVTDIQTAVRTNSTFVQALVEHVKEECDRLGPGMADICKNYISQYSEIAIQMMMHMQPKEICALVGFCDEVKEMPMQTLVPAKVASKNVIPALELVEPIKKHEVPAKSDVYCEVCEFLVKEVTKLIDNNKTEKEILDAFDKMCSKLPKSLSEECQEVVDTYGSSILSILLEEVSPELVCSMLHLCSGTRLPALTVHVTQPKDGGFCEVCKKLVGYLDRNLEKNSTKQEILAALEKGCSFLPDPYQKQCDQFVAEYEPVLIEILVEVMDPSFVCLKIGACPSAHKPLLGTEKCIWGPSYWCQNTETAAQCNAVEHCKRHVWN
UniProt Q6ZRP7: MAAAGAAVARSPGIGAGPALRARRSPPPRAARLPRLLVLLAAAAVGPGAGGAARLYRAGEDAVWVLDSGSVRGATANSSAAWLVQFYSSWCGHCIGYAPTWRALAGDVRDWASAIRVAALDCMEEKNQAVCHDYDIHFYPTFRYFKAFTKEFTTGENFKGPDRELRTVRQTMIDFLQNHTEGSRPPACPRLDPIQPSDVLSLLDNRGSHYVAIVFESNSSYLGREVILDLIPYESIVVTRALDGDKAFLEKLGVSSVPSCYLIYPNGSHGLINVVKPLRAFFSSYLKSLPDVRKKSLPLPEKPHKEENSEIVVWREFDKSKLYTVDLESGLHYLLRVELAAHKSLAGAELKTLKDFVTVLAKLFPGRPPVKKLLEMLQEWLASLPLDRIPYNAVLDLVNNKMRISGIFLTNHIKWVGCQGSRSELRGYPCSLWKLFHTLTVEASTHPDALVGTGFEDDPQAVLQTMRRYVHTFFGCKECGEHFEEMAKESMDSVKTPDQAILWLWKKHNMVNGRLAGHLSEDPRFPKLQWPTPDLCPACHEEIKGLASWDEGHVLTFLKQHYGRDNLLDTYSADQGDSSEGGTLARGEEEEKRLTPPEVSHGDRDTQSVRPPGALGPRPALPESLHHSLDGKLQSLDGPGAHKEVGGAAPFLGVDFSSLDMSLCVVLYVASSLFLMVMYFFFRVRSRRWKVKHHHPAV
UniProt P18031: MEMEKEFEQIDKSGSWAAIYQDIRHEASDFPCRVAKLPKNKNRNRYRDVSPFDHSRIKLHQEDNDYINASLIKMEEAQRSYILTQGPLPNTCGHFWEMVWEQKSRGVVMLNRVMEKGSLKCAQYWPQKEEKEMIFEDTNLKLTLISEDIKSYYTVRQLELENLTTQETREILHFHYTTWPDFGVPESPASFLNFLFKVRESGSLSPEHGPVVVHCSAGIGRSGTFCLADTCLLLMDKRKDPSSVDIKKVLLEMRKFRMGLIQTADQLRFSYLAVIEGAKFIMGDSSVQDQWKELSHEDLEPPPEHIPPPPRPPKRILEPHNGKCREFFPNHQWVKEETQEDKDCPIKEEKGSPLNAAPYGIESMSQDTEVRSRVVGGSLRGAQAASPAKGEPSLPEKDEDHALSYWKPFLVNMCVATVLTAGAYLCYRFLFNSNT
UniProt Q15269: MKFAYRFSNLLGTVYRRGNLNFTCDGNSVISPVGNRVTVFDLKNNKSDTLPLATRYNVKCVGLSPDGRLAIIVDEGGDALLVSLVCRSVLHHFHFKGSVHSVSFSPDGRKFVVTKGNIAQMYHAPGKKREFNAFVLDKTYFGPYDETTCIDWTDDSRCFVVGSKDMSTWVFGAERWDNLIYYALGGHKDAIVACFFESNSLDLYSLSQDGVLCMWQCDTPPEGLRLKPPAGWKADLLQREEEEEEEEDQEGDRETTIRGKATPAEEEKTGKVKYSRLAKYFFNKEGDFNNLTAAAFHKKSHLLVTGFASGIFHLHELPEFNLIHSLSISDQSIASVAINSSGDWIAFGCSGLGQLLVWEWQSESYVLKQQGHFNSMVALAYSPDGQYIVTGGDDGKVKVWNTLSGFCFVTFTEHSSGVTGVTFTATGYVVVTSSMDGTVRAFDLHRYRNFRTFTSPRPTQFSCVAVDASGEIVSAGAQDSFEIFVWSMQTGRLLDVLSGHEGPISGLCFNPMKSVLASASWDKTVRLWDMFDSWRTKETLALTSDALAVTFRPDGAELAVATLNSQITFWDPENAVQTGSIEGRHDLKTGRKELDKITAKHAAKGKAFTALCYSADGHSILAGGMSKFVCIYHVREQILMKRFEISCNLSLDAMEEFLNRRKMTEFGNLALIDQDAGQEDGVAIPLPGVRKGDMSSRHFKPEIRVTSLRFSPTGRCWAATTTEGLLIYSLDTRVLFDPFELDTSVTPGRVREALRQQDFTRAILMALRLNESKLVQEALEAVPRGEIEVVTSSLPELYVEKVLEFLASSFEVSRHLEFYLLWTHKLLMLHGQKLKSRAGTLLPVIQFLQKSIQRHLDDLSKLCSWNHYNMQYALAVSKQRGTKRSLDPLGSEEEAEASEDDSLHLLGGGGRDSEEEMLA
UniProt Q96QR8: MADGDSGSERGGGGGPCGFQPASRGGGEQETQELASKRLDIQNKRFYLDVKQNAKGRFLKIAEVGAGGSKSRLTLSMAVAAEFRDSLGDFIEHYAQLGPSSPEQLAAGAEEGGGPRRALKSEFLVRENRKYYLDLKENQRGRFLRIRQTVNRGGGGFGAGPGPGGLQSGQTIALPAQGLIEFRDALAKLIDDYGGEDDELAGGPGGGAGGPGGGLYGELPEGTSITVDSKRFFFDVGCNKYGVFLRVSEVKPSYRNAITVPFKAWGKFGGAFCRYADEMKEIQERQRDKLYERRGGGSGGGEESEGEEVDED
UniProt P09417: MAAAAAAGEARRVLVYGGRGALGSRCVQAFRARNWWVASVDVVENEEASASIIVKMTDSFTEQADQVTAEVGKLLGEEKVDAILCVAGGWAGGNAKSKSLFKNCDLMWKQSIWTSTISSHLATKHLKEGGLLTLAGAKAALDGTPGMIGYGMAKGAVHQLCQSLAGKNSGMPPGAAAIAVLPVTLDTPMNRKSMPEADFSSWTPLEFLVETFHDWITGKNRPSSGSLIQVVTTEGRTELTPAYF
UniProt Q9BZE2: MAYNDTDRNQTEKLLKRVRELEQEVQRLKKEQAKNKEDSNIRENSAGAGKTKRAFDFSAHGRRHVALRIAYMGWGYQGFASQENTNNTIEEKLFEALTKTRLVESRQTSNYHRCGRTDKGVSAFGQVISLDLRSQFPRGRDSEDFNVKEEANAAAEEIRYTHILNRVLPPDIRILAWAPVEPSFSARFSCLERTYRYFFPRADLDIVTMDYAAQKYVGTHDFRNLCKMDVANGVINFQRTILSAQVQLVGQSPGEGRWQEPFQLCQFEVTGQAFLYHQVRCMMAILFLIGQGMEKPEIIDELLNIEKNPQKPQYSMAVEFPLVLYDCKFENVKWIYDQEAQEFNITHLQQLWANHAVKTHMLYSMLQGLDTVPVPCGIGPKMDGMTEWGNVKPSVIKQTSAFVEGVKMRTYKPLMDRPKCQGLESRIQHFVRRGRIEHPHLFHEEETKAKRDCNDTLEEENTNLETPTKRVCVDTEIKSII

[2] = compound: CC1=C(C=C(C=C1)NC(=O)C2=CC(=CC=C2)N(C)C)NC(=O)C3=CC=C(C=C3)O
How it was run: as §1

[3] = compound: CC1=CC=C(C=C1)SC2=C3C=C(SC3=CN=C2)C(=O)N
How it was run: as §1

[4] = compound: CC1=NC(=CC=C1)C2=C(N=C(N2)C(C)(C)C)C3=CC4=NC=CN=C4C=C3
How it was run: as §1

Nexturastat A = compound: CCCCN(Cc1ccc(C(=O)NO)cc1)C(=O)Nc1ccccc1 [Nexturastat A]
How it was run: as §1

vemurafenib = compound: CCCS(=O)(=O)Nc1ccc(F)c(C(=O)c2c[nH]c3ncc(-c4ccc(Cl)cc4)cc23)c1F [vemurafenib]
How it was run: as §1

[5] = compound: CCCS(=O)(=O)Nc1ccc(F)c(C(=O)c2c[nH]c3ncc(Cl)cc23)c1F
How it was run: as §1

[6] = compound: CCCc1cc(C)[nH]c(=O)c1CNC(=O)c1cc(-c2ccnc(N3CCN(C)CC3)c2)cc2c1cnn2C(C)C
How it was run: as §1

givinostat = compound: CCN(CC)Cc1ccc2cc(COC(=O)Nc3ccc(C(=O)NO)cc3)ccc2c1 [givinostat]
How it was run: as §1

barasertib = compound: CCN(CCCOc1ccc2c(Nc3cc(CC(=O)Nc4cccc(F)c4)[nH]n3)ncnc2c1)CCOP(=O)(O)O [barasertib]
How it was run: as §1

[7] = compound: CC[C@@H]1C(=O)N(C)c2cnc(Nc3ccc(C(=O)NC4CCN(C)CC4)cc3OC)nc2N1C1CCCC1
How it was run: as §1

volasertib = compound: CC[C@@H]1C(=O)N(C)c2cnc(Nc3ccc(C(=O)N[C@H]4CC[C@H](N5CCN(CC6CC6)CC5)CC4)cc3OC)nc2N1C(C)C [volasertib]
How it was run: as §1

[8] = compound: CC[C@H](C)N1C=C(C2=C(C=C(C=C21)C3=CN=C(C=C3)N4CCNCC4)C(=O)NCC5=C(C=C(NC5=O)C)C)C
How it was run: as §1

epoxomicin = compound: CC[C@H](C)[C@@H](C(=O)N[C@@H]([C@@H](C)O)C(=O)N[C@@H](CC(C)C)C(=O)[C@]1(CO1)C)NC(=O)[C@H]([C@@H](C)CC)N(C)C(=O)C [epoxomicin]
How it was run: as §1

[9] = compound: CCn1c(C(=O)N(C2CC2)C2CC2)cc2c3c(ncn3C)c(Nc3cc(C)n(C)n3)nc21
How it was run: as §1

[10] = compound: CCn1cc(-c2ccnc3[nH]c(-c4cccc(CN(C)C)c4)cc23)c(-c2ccc(NC(=O)N(C)C)cc2)n1
How it was run: as §1

[11] = compound: CN(C)CC(=O)Nc1ccc2[nH]c(=O)c3ccccc3c2c1
How it was run: as §1

rosiglitazone = compound: CN(CCOC1=CC=C(C=C1)C[C@H]2C(=O)NC(=O)S2)C3=CC=CC=N3 (racemic) [rosiglitazone]
How it was run: as §1

[12] = compound: CN1C2=C(C3=C1C(=O)N(N=C3)CC4=CC(=CC=C4)N)SC(=C2)S(=O)C
How it was run: as §1

[13] = compound: CN1CCC(CNc2ccc3ncc(-c4cccc(OC(F)(F)F)c4)n3n2)CC1
How it was run: as §1

Measured: log2 fold change

PTMS (UniProt P20962)
inactive: [1] 0.018 | [2] 0.03 | [3] 0.018 | [4] 0.073 | Nexturastat A -0.053 | vemurafenib 0.031 | [5] 0.024 | [6] 0.011 | givinostat -0.006 | barasertib 0.002 | [7] 0.013 | volasertib 0.078 | [8] -0.007 | epoxomicin 0.021 | [9] 0.01 | [10] -0.009 | [11] 0.007 | rosiglitazone -0.012 | [12] -0.002 | [13] -0.056

PSMB7 (UniProt Q99436)
inactive: [1] -0.005 | [2] 0.001 | [3] -0.026 | [4] -0.025 | Nexturastat A 0.03 | vemurafenib -0.039 | [5] -0.016 | [6] -0.014 | givinostat -0.009 | barasertib -0.029 | [7] 0.062 | volasertib 0.148 | [8] -0.018 | epoxomicin -0.184 | [9] 0.008 | [10] 0.01 | [11] -0.028 | rosiglitazone -0.023 | [12] -0.009 | [13] 0.063

PTK7 isoform 6 (UniProt Q13308)
inactive: [1] -0.086 | [2] -0.081 | [3] -0.064 | [4] -0.058 | Nexturastat A -0.046 | vemurafenib 0.059 | [5] -0.091 | [6] -0.01 | givinostat 0.048 | barasertib -0.002 | [7] -0.014 | volasertib 0.022 | [8] 0.022 | epoxomicin -0.159 | [9] -0.016 | [10] 0.099 | [11] -0.038 | rosiglitazone 0.075 | [12] 0.071 | [13] 0.047

QTRT2 isoform 4 (UniProt Q9H974)
inactive: [1] -0.003 | [2] -0.033 | [3] -0.001 | [4] 0 | Nexturastat A -0.054 | vemurafenib -0.009 | [5] 0.008 | [6] -0.132 | givinostat -0.112 | barasertib 0.013 | [7] 0.023 | volasertib 0.05 | [8] 0 | epoxomicin 0.023 | [9] -0.015 | [10] -0.028 | [11] -0.002 | rosiglitazone 0.011 | [12] -0.056 | [13] -0.052

PUS7 isoform 2 (UniProt Q96PZ0)
inactive: [1] 0.038 | [2] -0.011 | [3] -0.031 | [4] -0.055 | Nexturastat A 0.052 | vemurafenib -0.01 | [5] -0.015 | [6] -0.002 | givinostat -0.046 | barasertib -0.001 | [7] 0.045 | volasertib 0.017 | [8] 0.053 | epoxomicin 0.012 | [9] 0.007 | [10] 0.014 | [11] -0.011 | rosiglitazone -0.005 | [12] 0.012 | [13] -0.07

PTCD3 (UniProt Q96EY7)
inactive: [1] 0.065 | [2] 0.006 | [3] 0.041 | [4] 0.001 | Nexturastat A 0.164 | vemurafenib 0.08 | [5] 0.09 | [6] 0.042 | givinostat 0.001 | barasertib -0.051 | [7] -0.024 | volasertib 0.051 | [8] 0.102 | epoxomicin 0.055 | [9] -0.029 | [10] -0.014 | [11] -0.019 | rosiglitazone 0.012 | [12] 0.045 | [13] 0.08

PSMD10 (UniProt O75832)
inactive: [1] -0.029 | [2] -0.079 | [3] 0.042 | [4] 0.061 | Nexturastat A -0.041 | vemurafenib 0.055 | [5] 0.096 | [6] -0.007 | givinostat 0.023 | barasertib 0.031 | [7] -0.127 | volasertib -0.155 | [8] 0.048 | epoxomicin 0.139 | [9] 0.082 | [10] -0.016 | [11] 0.057 | rosiglitazone 0.033 | [12] -0.034 | [13] 0.037

QTRT1 (UniProt Q9BXR0)
inactive: [1] 0.036 | [2] 0.002 | [3] 0.004 | [4] -0.032 | Nexturastat A -0.002 | vemurafenib -0.026 | [5] 0.01 | [6] -0.057 | givinostat -0.097 | barasertib -0.006 | [7] 0.03 | volasertib 0.053 | [8] -0.005 | epoxomicin 0.012 | [9] -0.001 | [10] -0.028 | [11] -0.013 | rosiglitazone 0.018 | [12] -0.039 | [13] -0.014

PSAP isoform 3 (UniProt P07602)
inactive: [1] 0.012 | [2] -0.012 | [3] 0.191 | [4] 0.032 | Nexturastat A -0.071 | vemurafenib 0.013 | [5] -0.134 | [6] -0.006 | givinostat -0.076 | barasertib 0.024 | [7] -0.043 | volasertib -0.041 | [8] -0.037 | epoxomicin 0.069 | [9] 0.012 | [10] 0.005 | [11] -0.027 | rosiglitazone 0.037 | [12] 0.019 | [13] 0.012

Quoted from the entries so far (four entries):
PUS7 isoform 2 (UniProt Q96PZ0)
inactive: [1] 0.038 | [2] -0.011 | [3] -0.031 | [4] -0.055 | Nexturastat A 0.052 | vemurafenib -0.01 | [5] -0.015 | [6] -0.002 | givinostat -0.046 | barasertib -0.001 | [7] 0.045 | volasertib 0.017 | [8] 0.053 | epoxomicin 0.012 | [9] 0.007 | [10] 0.014 | [11] -0.011 | rosiglitazone -0.005 | [12] 0.012 | [13] -0.07

PTCD3 (UniProt Q96EY7)
inactive: [1] 0.065 | [2] 0.006 | [3] 0.041 | [4] 0.001 | Nexturastat A 0.164 | vemurafenib 0.08 | [5] 0.09 | [6] 0.042 | givinostat 0.001 | barasertib -0.051 | [7] -0.024 | volasertib 0.051 | [8] 0.102 | epoxomicin 0.055 | [9] -0.029 | [10] -0.014 | [11] -0.019 | rosiglitazone 0.012 | [12] 0.045 | [13] 0.08

PSMD10 (UniProt O75832)
inactive: [1] -0.029 | [2] -0.079 | [3] 0.042 | [4] 0.061 | Nexturastat A -0.041 | vemurafenib 0.055 | [5] 0.096 | [6] -0.007 | givinostat 0.023 | barasertib 0.031 | [7] -0.127 | volasertib -0.155 | [8] 0.048 | epoxomicin 0.139 | [9] 0.082 | [10] -0.016 | [11] 0.057 | rosiglitazone 0.033 | [12] -0.034 | [13] 0.037

QTRT1 (UniProt Q9BXR0)
inactive: [1] 0.036 | [2] 0.002 | [3] 0.004 | [4] -0.032 | Nexturastat A -0.002 | vemurafenib -0.026 | [5] 0.01 | [6] -0.057 | givinostat -0.097 | barasertib -0.006 | [7] 0.03 | volasertib 0.053 | [8] -0.005 | epoxomicin 0.012 | [9] -0.001 | [10] -0.028 | [11] -0.013 | rosiglitazone 0.018 | [12] -0.039 | [13] -0.014

Remaining list, next part.

QSOX2 (UniProt Q6ZRP7)
inactive: [1] 0.011 | [2] -0.008 | [3] 0.016 | [4] -0.022 | Nexturastat A -0.063 | vemurafenib 0.01 | [5] -0.005 | [6] -0.084 | givinostat -0.015 | barasertib -0.025 | [7] -0.13 | volasertib -0.085 | [8] -0.034 | epoxomicin -0.097 | [9] 0.043 | [10] 0.006 | [11] 0.02 | rosiglitazone 0.006 | [12] -0.05 | [13] 0.033

PTPN1 (UniProt P18031)
inactive: [1] -0.065 | [2] -0.066 | [3] 0.025 | [4] -0.054 | Nexturastat A 0.145 | vemurafenib -0.011 | [5] 0.069 | [6] 0.069 | givinostat 0.154 | barasertib 0.101 | [7] -0.104 | volasertib -0.461 | [8] 0.08 | epoxomicin -0.019 | [9] -0.116 | [10] 0.046 | [11] 0.023 | rosiglitazone 0.055 | [12] 0.181 | [13] -0.04

PWP2 (UniProt Q15269)
inactive: [1] -0.007 | [2] -0.042 | [3] -0.059 | [4] -0.016 | Nexturastat A 0.189 | vemurafenib 0.001 | [5] 0.093 | [6] 0.068 | givinostat 0 | barasertib 0.061 | [7] 0.057 | volasertib -0.159 | [8] 0.04 | epoxomicin 0.06 | [9] -0.003 | [10] 0.052 | [11] -0.006 | rosiglitazone -0.068 | [12] 0.193 | [13] 0.114

PTAR1 (UniProt Q7Z6K3)
inactive: [1] -0.035 | [2] -0.031 | [3] -0.019 | [4] -0.026 | Nexturastat A -0.034 | vemurafenib 0.016 | [5] 0.005 | [6] 0.02 | givinostat -0.071 | barasertib 0.021 | [7] 0.07 | volasertib 0.022 | [8] 0.039 | epoxomicin -0.005 | [9] -0.043 | [10] -0.05 | [11] 0.047 | rosiglitazone -0.043 | [12] -0.082 | [13] -0.011

PURB (UniProt Q96QR8)
inactive: [1] -0.088 | [2] 0.023 | [3] -0.156 | [4] -0.105 | Nexturastat A 0.113 | vemurafenib -0.121 | [5] -0.062 | [6] 0.055 | givinostat -0.046 | barasertib -0.176 | [7] 0.28 | volasertib 0.373 | [8] -0.05 | epoxomicin -0.303 | [9] 0.023 | [10] 0.231 | [11] -0.049 | rosiglitazone -0.089 | [12] 0.335 | [13] 0.297

QDPR (UniProt P09417)
inactive: [1] -0.007 | [2] 0.006 | [3] 0.045 | [4] -0.001 | Nexturastat A -0.008 | vemurafenib -0.036 | [5] -0.018 | [6] -0.029 | givinostat -0.013 | barasertib 0.018 | [7] 0.019 | volasertib 0.055 | [8] -0.031 | epoxomicin 0.012 | [9] 0.041 | [10] 0.004 | [11] -0.04 | rosiglitazone -0.03 | [12] -0.004 | [13] -0.007

PUS3 (UniProt Q9BZE2)
inactive: [1] 0.053 | [2] 0.03 | [3] 0.032 | [4] -0.018 | Nexturastat A -0.114 | vemurafenib 0.015 | [5] 0.085 | [6] -0.028 | givinostat -0.015 | barasertib 0.033 | [7] -0.054 | volasertib -0.142 | [8] 0.02 | epoxomicin 0 | [9] 0.03 | [10] 0.074 | [11] -0.013 | rosiglitazone 0.049 | [12] -0.038 | [13] -0.045
